Results from article PMC6953435.

Experiments:
Experiment in all cases: affinity purification with mass spectrometry; GFP-tagged bait pulled down from clarified C. elegans lysate with GFP-Trap (anti-GFP nanobody agarose), 4 h at 4°C; lysis buffer 50 mM HEPES pH 7.4, 1 mM EGTA, 1 mM MgCl2, 100 mM KCl, 10% glycerol, 0.05% NP40, 1 mM DTT; 3 washes with 50 mM HEPES, 100 mM KCl; SDS-PAGE, Orbitrap LC-MS/MS; two independent experiments
[1] = biological target: MALT-1-GFP (C. elegans)
[2] = biological target: T1, EIF-3.L-GFP (C. elegans) (UniProt Q95QW0)
T1 sequence: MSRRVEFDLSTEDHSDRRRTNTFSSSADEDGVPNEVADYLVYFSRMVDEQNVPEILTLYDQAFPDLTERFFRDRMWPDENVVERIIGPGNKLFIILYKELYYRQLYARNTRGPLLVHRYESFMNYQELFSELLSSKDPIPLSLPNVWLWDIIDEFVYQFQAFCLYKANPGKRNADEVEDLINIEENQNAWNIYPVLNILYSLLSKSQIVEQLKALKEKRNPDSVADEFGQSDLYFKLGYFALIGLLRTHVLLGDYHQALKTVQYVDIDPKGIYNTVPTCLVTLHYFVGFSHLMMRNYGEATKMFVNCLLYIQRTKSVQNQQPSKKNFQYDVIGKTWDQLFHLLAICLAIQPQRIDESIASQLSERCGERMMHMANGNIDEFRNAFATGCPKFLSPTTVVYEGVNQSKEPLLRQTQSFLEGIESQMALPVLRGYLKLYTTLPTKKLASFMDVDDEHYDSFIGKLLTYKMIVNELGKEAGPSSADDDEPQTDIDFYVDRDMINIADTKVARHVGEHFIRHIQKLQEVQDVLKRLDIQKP

[3] = biological target: GFP-ARCP-1B (C. elegans)

binding [1]: no binding
binding [2]: no binding
binding [3]: binds
B1: phosphodiesterase 1 (PDE-1) (enzyme, UniProt O18696 1-664)
chain: MNRARKTSSCGCFRSAFCLLKPSTSSASEEHGDSDKKLLSVQLITPRDEEEQTSSRSIKIPPLDLNGLDCKKNAVAARRAGRRRTSEGGGVRGKGHFAEVVLDGLQRPVSLLRNQKEKSNSDDNCQEKEPTSPSSSRKKSYDNAPALESLEKLRYILHQLNSGQLPLEDLKRNIEYAALVLETAYMDETRRICDEDDDLAEVTPETVPDEVREWLAATFTRQNAGKKRDKPKFKSVANAIRTGIFFEKLFRKQQVVQCPIPPEIAELMKEVCTWSFSPFQLNEVSEGHALKYVGFELFNRYGFMDRFKVPLTALENYLSALEVGYSKHNNPYHNVVHAADVTQSSHFMLSQTGLANSLGDLELLAVLFGALIHDYEHTGHTNNFHIQSQSQFAMLYNDRSVLENHHVSSCFRLMKEDDKNILTHLTRDEYKELRNMVIEIVLATDMSTHFMQIKTMKSMLSLPEGIDKNKALCLIVHACDISHPAKPWNLHERWTEGVLEEFFRQGDLEASMGLPYSPLCDRHTVHVADSQIGFIDFIVEPTMVVCGELLVKMVEPLVSLPPTDSLFPPSVDGGDDKSPSNALSPLPDLRNSSTSPSSIRRIPLNYAGKLDIPTPWMKFLHENKAHWKERAAKEEEERKIKEAAEAEAAAKQVEENKENGVTTN

These are yes or no findings as the source states them, for the method shown. Binding seen in cells or lysates may run through a third protein. A yes stands for co-enrichment or nearness to the bait. Other partners may have been found. For part of these data: No binding means not detected with the bait. For part of these data: Where a sequence is shown, tags or fusion partners need not be part of it.
